# PubChem BioAssay AID504764 | Drosophila RNAi Screening Center – 2011
# Assay: 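Genome-wide screen for regulators of Notch-driven gene expression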 (primary screen)
# Cells: Drosophila Kc167 cells
# Reagents: long dsRNA against Drosophila genes
# Time to read-out: about 5 days (4 days dsRNA, then 24 h after transfection)
# Treatment: transfection of constitutively active membrane-tethered Notch lacking the extracellular domain, read 24 h later
# Read-out: 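Light from a Notch-responsive E(spl)m3 luciferase reporter under active Notch, with control-promoter and no-Notch reporter wells to normalise; raw counts from paired wells a and b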
# Reading the numbers: induced reporter light, run 1, well a and induced reporter light, run 1, well b: higher = more light from the Notch target reporter with active Notch; control promoter light, run 1, well a and control promoter light, run 1, well b: higher = more light from the viral control promoter (cell number, transfection, viability); uninduced reporter light, run 1, well a: higher = more light from the Notch target reporter without active Notch
# Hit rule: 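Hit if the duplicate-averaged log2 ratio of induced to control-promoter light gives a plate-wise z beyond ±2, or induced to uninduced beyond ±1.8; weak-control or discordant-duplicate wells dropped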
# Meaning of the calls: active = modifier hit (raised or lowered Notch signal); inactive = not a hit
# In all, the deposit lists about 22,000 reagents; below is an unselected part of those with a known target gene and a result. In the full data, 403 (1.9%) were called active. 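Unnormalised raw counts per well; ratio z-scores behind the hit calls and whether each hit raises or lowers signal are not deposited.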 Names joined by + are all predicted targets of the reagent. The record does not give: the amount of reagent.
gene,dsRNA,"induced reporter light, run 1, well a","induced reporter light, run 1, well b","control promoter light, run 1, well a","control promoter light, run 1, well b","uninduced reporter light, run 1, well a",Call
Gal,DRSC03134,1.36e5,89905,1.51e5,1.31e5,7400,inactive
r + CG13012,DRSC19531,74360,62390,98930,76885,12225,inactive
CG14984,DRSC08442,1.49e5,1.21e5,1.65e5,1.54e5,6155,inactive
MTPAP,DRSC18585,1.38e5,1.26e5,1.74e5,1.98e5,9105,inactive
CG18549,DRSC15347,2900,2490,4615,3605,775,inactive
mthl11,DRSC12779,1.53e5,1.71e5,1.37e5,1.57e5,10570,inactive
Neurochondrin,DRSC12580,1.21e5,1.08e5,78880,85790,10475,inactive
ftz,DRSC12626,71095,73900,60125,59590,4500,inactive
CG16741,DRSC06622,1.24e5,1.04e5,1.58e5,1.81e5,10495,inactive
upd3,DRSC19636,26980,33050,26535,23620,2710,inactive
upd3,DRSC19968,73050,83135,79505,81500,10230,inactive
upd3,DRSC22169,,,,,,inactive
Golgin245,DRSC04374,81680,83180,70130,69515,6442,inactive
Mitofilin,DRSC16742,48795,54065,73360,65260,3200,inactive
hpRNA:CR18854 + IP3K1,DRSC02218,1.96e5,1.61e5,1.93e5,2.02e5,17030,inactive
CG15760,DRSC19725,34730,40205,42510,34085,2532,inactive
Cerk,DRSC12285,1.45e5,1.27e5,88470,84150,9378,inactive
Kif19A,DRSC16576,1.73e5,1.78e5,2.20e5,1.84e5,11470,inactive
pdgy,DRSC19064,99955,1.10e5,96500,1.08e5,9240,inactive
pdgy,DRSC19341,2.67e5,2.32e5,3.06e5,2.25e5,13325,inactive
Gmppb,DRSC12169,1.39e5,1.27e5,1.19e5,95110,10765,inactive
Gga,DRSC18260,1.30e5,1.42e5,2.02e5,1.65e5,12165,inactive
CG12688 (retired record),DRSC17877,1.62e5,1.39e5,2.25e5,2.83e5,11045,inactive
CG12688 (retired record),DRSC17878,1.04e5,93040,1.51e5,1.51e5,7310,inactive
CG1146,DRSC08189,88940,74500,1.29e5,1.63e5,8170,inactive
Prosalpha4,DRSC20271,70900,62720,76610,61590,7675,inactive
CG10383,DRSC02050,1.95e5,2.17e5,1.97e5,2.30e5,14428,inactive
mbf1,DRSC11365,1.70e5,1.76e5,1.20e5,99320,10455,inactive
RacGAP84C,DRSC12630,1.30e5,1.10e5,81565,78325,8190,inactive
OSCP1,DRSC06304,1.04e5,1.01e5,1.17e5,1.30e5,9115,inactive
Lamtor1,DRSC10183,1.53e5,1.31e5,1.16e5,97560,9450,inactive
Ptp61F,DRSC08683,1.32e5,1.42e5,2.58e5,2.58e5,8442,inactive
Oatp33Ea,DRSC02859,2.17e5,1.79e5,1.61e5,1.55e5,13235,inactive
CG14641,DRSC12227,61880,58830,27335,28665,5255,inactive

Copied from the list:
Entry of MTPAP [DRSC18585] in “induced reporter light, run 1, well a”: 1.38e5
Under “induced reporter light, run 1, well b”, Gmppb [DRSC12169] shows 1.27e5
Value for pdgy [DRSC19341] in “uninduced reporter light, run 1, well a”: 13325
